# Results published in publication PMC10360236.
# The chains behind the UniProt entries cited, without tags or fusion partners.
# UniProt P55128: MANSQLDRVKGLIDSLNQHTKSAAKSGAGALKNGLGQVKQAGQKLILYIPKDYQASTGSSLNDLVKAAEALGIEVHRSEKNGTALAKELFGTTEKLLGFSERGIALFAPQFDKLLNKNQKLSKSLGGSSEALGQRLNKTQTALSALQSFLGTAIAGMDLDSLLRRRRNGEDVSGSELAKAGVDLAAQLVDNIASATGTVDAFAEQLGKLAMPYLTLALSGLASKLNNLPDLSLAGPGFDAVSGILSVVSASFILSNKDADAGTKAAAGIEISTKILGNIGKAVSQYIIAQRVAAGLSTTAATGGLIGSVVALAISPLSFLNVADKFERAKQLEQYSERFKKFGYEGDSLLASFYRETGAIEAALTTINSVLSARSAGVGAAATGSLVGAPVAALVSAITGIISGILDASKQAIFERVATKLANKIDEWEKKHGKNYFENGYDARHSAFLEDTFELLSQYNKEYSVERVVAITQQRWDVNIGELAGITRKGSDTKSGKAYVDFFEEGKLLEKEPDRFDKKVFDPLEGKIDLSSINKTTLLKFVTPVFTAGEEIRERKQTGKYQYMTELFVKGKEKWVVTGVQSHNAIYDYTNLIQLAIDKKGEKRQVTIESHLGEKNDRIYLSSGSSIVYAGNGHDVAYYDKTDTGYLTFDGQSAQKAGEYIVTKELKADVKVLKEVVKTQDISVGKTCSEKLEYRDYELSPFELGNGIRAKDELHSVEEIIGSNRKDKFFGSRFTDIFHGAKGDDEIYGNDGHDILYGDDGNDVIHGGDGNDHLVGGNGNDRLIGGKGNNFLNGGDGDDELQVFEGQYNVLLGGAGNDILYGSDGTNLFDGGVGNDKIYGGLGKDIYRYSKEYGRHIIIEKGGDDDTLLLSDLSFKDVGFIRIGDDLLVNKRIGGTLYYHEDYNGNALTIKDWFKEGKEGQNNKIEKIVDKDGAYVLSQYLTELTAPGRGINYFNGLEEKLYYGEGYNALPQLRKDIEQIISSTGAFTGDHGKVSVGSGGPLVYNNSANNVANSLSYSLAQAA
# Results are given in words; binding and its absence hold for the method and conditions named. Binding seen in cells or lysates may run through a third protein. Here binding means that the protein was enriched with, or labelled near, the bait; the list need not be complete.
# B1: caveolin-1 (CAV1), endogenous in iPAM cells (protein, UniProt Q6RVA9 1-178)
# chain: MSGGKYVDSEGHLYTVPIREQGNIYKPNNKAMAEEMNEKQVYDAHTKEIDLVNRDPKHLNDDVVKIDFEDVIAEPEGTHSFDGIWKASFTTFTVTKYWFYRLLSALFGIPMALIWGIYFAILSFLHIWAVVPCIKSFLIEIQCISRVYSIYVHTFCDPLFEAIGKIFSNIRINMQKEI
# Target: His-TurboID-ApxIA recombinant protein (Actinobacillus pleuropneumoniae serotype 1) (UniProt P55128)
# Test: proximity labelling; 16 ug purified His-TurboID-ApxIA (control His-TurboID) added to iPAM cells on ice for 1 h, then 50 uM biotin at 37 °C for 20 min; lysis, streptavidin magnetic beads, mass spectrometry; proteins unique to the His-TurboID-ApxIA group taken as interacting; only the target purified
binder,measurement,value
B1,binding,binds
